PubChem BioAssay AID504786 – Drosophila RNAi Screening Center – 2011

Purpose: 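Fly genes required for HIF-dependent transcription when hypoxia is mimicked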 (primary screen)
Cells: Drosophila S2 cells with a stable HIF luciferase reporter
Reagents: long dsRNA against Drosophila genes, about 0.2 µg dsRNA per well of a 384-well plate
Duration: three days of knock-down, then 20 h of DFO before reading
Conditions: desferrioxamine (DFO) at 100 µM, an iron chelator that mimics hypoxia, for 20 h
Detection: 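HIF reporter luminescence in cells given 100 µM DFO for 20 h, using the mouse ldh-a hypoxia-response element, scored as per-plate z-scores; higher means greater loss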
Reading the numbers: z-score: higher = stronger loss of HIF reporter signal
The deposit covers about 21,000 reagents; below is a random part of those that have a named target and a result. 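Primary screen; positive scores mean lost reporter signal, so the sign may be inverted from the usual convention.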 Names joined by + are all predicted targets of the reagent. Not all columns of the deposit are shown.

Knock-down of CG31683 + CG18858 [DRSC02703] gave: z-score, replicate 1 = -0.3.
yip3 [DRSC04724] scored z-score, replicate 1 = -0.5.
After knock-down of CG11035 [DRSC14287], the record shows z-score, replicate 1 = -0.4.
For Naa60 [DRSC10301] the deposit lists z-score, replicate 1 = -0.2.
After knock-down of Mmp2 [DRSC06698] the results were z-score, replicate 1 = -0.4.
CG17625 [DRSC15249] gave z-score, replicate 1 = -0.3.
Against rudhira [DRSC19821], the values are z-score, replicate 1 = -0.1.
Silencing of mamo [DRSC19370] came out at: z-score, replicate 1 = -0.4.
CG4968 [DRSC02794] showed z-score, replicate 1 = -0.3.
After knock-down of CG33229 [DRSC07863], the record shows z-score, replicate 1 = -0.3.
Knock-down of ClC-b [DRSC07220] came out at: z-score, replicate 1 = -0.2.
Depletion of Polr1F [DRSC02278] gave: z-score, replicate 1 = 0.1.
Depletion of Moca-cyp [DRSC15364] resulted in: z-score, replicate 1 = -0.4.
Knock-down of S-Lap5 [DRSC06732] resulted in: z-score, replicate 1 = -0.4.
sca [DRSC07677] showed z-score, replicate 1 = -0.4.
Silencing of Nepl6 [DRSC03242] gave: z-score, replicate 1 = -0.4.
CG15432 [DRSC00447] showed z-score, replicate 1 = 0.1.
Depletion of CG15734 [DRSC19701] gave: z-score, replicate 1 = -0.3.
After knock-down of CG14072 [DRSC02375] the results were z-score, replicate 1 = -0.3.
For Sox21b [DRSC10025] the deposit lists z-score, replicate 1 = -0.2.
Sox21b [DRSC10634] scored z-score, replicate 1 = 0.6.
dup [DRSC07088] gave z-score, replicate 1 = 4.5.
Depletion of Myo31DF [DRSC03376] gave: z-score, replicate 1 = -0.4.
With knock-down of CG17266 [DRSC04979] the results were z-score, replicate 1 = -0.2.
CtsL4 [DRSC02849] scored z-score, replicate 1 = -0.1.
Depletion of Odc1 [DRSC07482] gave: z-score, replicate 1 = -0.4.
After knock-down of CG17377 [DRSC00950], the screen gave z-score, replicate 1 = -0.5.
Against CG17377 [DRSC02615], the values are z-score, replicate 1 = -0.3.

Quoted from the entries so far (2 entries):
CG33229 [DRSC07863] — z-score, replicate 1 = -0.3
ClC-b [DRSC07220] — z-score, replicate 1 = -0.2
